Source: patent US11951131B2, “Anti-SLAMF7 chimeric antigen receptors” (The United States of America, as represented by the …, priority 2018, dated 2024)

Tested on: primary human T cells
Assay: CAR detection on transduced T cells (Protein L staining, flow cytometry)
Type: cell-based

B1: Luc63-CD828Z: anti-SLAMF7 CAR (SEQ ID NO: 28): identical to Luc90-CD828Z except scFv from humanized Luc63 antibody (protein)
chain: MALPVTALLLPLALLLHAARPDIQMTQSPSSLSASVGDRVTITCKASQDVGIAVAWYQQKPGKVPKLLIYWASTRHTGVPDRFSGSGSGTDFTLTISSLQPEDVATYYCQQYSSYPYTFGQGTKVEIKGSTSGSGKPGSGEGSTKGEVQLVESGGGLVQPGGSLRLSCAASGFDFSRYWMSWVRQAPGKGLEWIGEINPDSSTINYAPSLKDKFIISRDNAKNSLYLQMNSLRAEDTAVYYCARPDGNYWYFDVWGQGTLVTVSSFVPVFLPAKPTTTPAPRPPTPAPTIASQPLSLRPEACRPAAGGAVHTRGLDFACDIYIWAPLAGTCGVLLLSLVITLYCNHRNRSKRSRLLHSDYMNMTPRRPGPTRKHYQPYAPPRDFAAYRSRVKFSRSADAPAYQQGQNQLYNELNLGRREEYDVLDKRRGRDPEMGGKPRRKNPQEGLYNELQKDKMAEAYSEIGMKGERRRGKGHDGLYQGLSTATKDTYDALHMQALPPR
% CAR^+ (Table B-1, staining the T cells with Protein L): 62%
CAR expression on T cells (gamma-retroviral transduction, in words): expressed on the surface of CAR T cells
